Measurements reported in PubChem BioAssay AID602196 (INSERM, 2012).

Assay: 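Modifiers of cisplatin sensitivity in A549 cells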
Cells: human A549 lung cancer cells
Knock-down reagent: siRNA pair against human genes
Time to read-out: 48 h transfection before cisplatin; time from cisplatin to read-out not stated
Conditions: cisplatin at a dose killing half of control-siRNA cells; exact dose and duration not given
Measurement: 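Cisplatin cell death as a shift from the 50% death seen with control siRNA; siRNAs toxic or growth-blocking alone scored 0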
Direction: two-siRNA summed score (-2 to +2): higher = both siRNAs protect from cisplatin killing; -2 means both sensitise
Rule for the call: 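Each siRNA scores 0 if harmful alone by LDH or WST-1, otherwise +1 if it reduces and -1 if it increases cisplatin killing; a gene is active when both siRNAs agree (sum +2 or -2)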
Meaning of the calls: active = both siRNAs shift cisplatin killing the same way; inactive = no consistent shift, or siRNA harmful alone
Shown is a random part of about 23,000 reagents. Of all reagents, 455 (2%) were called active. 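Active includes both protection and sensitisation; some change values fall well beyond the stated -50 to +50 range.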 Unmarked entries are inactive. Further read-outs or replicates are left out here. Not given: the amount of reagent.

Silencing of TAT gave: two-siRNA summed score (-2 to +2) = 0.
After knock-down of TMEM168, the record shows two-siRNA summed score (-2 to +2) = 0.
For LOC389778, the entry reads two-siRNA summed score (-2 to +2) = 0.
After knock-down of KRTAP20-1, the record shows two-siRNA summed score (-2 to +2) = 1.
After knock-down of ARSB, the record shows two-siRNA summed score (-2 to +2) = 0.
For ZNF337 the deposit lists two-siRNA summed score (-2 to +2) = 0.
Knock-down of LOC143497 came out at: two-siRNA summed score (-2 to +2) = 0.
Knock-down of LOC441470 resulted in: two-siRNA summed score (-2 to +2) = 1.
Knock-down of EFHB gave: two-siRNA summed score (-2 to +2) = 0.
EPHA5 scored two-siRNA summed score (-2 to +2) = 0.
Against LOC158381, the entry reads two-siRNA summed score (-2 to +2) = 0.
PTGER2 gave two-siRNA summed score (-2 to +2) = -1.
Against TFPI2 the deposit lists two-siRNA summed score (-2 to +2) = 0.
Knock-down of DDX27 came out at: two-siRNA summed score (-2 to +2) = 0.
Against SUMO1, the values are two-siRNA summed score (-2 to +2) = 0.
Silencing of LOC401202 gave: two-siRNA summed score (-2 to +2) = 0.
Against SURF6 the deposit lists two-siRNA summed score (-2 to +2) = 1.
For CDIPTOSP the deposit lists two-siRNA summed score (-2 to +2) = 0.
Against COL4A5, the entry reads two-siRNA summed score (-2 to +2) = -1.
Silencing of C12orf43 gave: two-siRNA summed score (-2 to +2) = 0.
With knock-down of SERPINB9P1 the results were two-siRNA summed score (-2 to +2) = 1.
GSTM4 scored two-siRNA summed score (-2 to +2) = -1.
Knock-down of F7 came out at: two-siRNA summed score (-2 to +2) = 0.
With knock-down of MAP7 the results were two-siRNA summed score (-2 to +2) = 0.
For LOC441544 the deposit lists two-siRNA summed score (-2 to +2) = 0.
RRP15 showed two-siRNA summed score (-2 to +2) = 0.
Depletion of ATP5MK came out at: two-siRNA summed score (-2 to +2) = 0.
After knock-down of PRODHLP, the record shows two-siRNA summed score (-2 to +2) = 0.
Knock-down of NEK11 resulted in: two-siRNA summed score (-2 to +2) = -1.
Depletion of LOC400800 gave: two-siRNA summed score (-2 to +2) = 0.
Against DHCR24, the entry reads two-siRNA summed score (-2 to +2) = 0.
